PubChem BioAssay AID1259425 | University of Nebraska Medical Center, 2018
The whole screen tested about 14,000 reagents; below is a random part of them. Further read-outs or replicates are left out here. The record does not give: the time to read-out.

- Aim: 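Compare each knockdown with KSR1 silencing using changes in marker transcripts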 (primary screen)
- System: HCT116 human colon cancer cells
- Reagent: siRNA pool against human genes, 50 nM siRNA
- Read-out: 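After 50 nM siRNA pool, branched-DNA assay measures six marker transcripts per well, minus blank, normalised to the geometric mean of two housekeeping transcripts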
- Direction: BNIP3L mRNA: higher = more BNIP3L transcript after knockdown; NDRG1 mRNA: higher = more NDRG1 transcript after knockdown

Against TGFBR1, the values are BNIP3L mRNA, set 1 = 0.161; NDRG1 mRNA, set 1 = 0.106. TP53INP1 showed BNIP3L mRNA, set 1 = 0.0911; NDRG1 mRNA, set 1 = 0.185. Knock-down of UPP1 gave: BNIP3L mRNA, set 1 = 0.131; NDRG1 mRNA, set 1 = 0.106. Against AQP7, the entry reads BNIP3L mRNA, set 1 = 0.0705; NDRG1 mRNA, set 1 = 0.46. With knock-down of MCAM the results were BNIP3L mRNA, set 1 = 0.0896; NDRG1 mRNA, set 1 = 0.107. After knock-down of MEIS3 the results were BNIP3L mRNA, set 1 = 0.221; NDRG1 mRNA, set 1 = 0.332.

After knock-down of DENND1C the results were BNIP3L mRNA, set 1 = 0.128; NDRG1 mRNA, set 1 = 0.526.

A portion taken from the entries so far, for reference:
AQP7 | BNIP3L mRNA, set 1: 0.0705; NDRG1 mRNA, set 1: 0.46
MCAM | BNIP3L mRNA, set 1: 0.0896; NDRG1 mRNA, set 1: 0.107

Additional entries:
With knock-down of ATP6V0C, the screen gave BNIP3L mRNA, set 1 = 0.226; NDRG1 mRNA, set 1 = 0.788. Knock-down of IGSF9B gave: BNIP3L mRNA, set 1 = 0.123; NDRG1 mRNA, set 1 = 0.117. Knock-down of PCDHA6 resulted in: BNIP3L mRNA, set 1 = 0.0652; NDRG1 mRNA, set 1 = 0.0636. For AXIN1, the entry reads BNIP3L mRNA, set 1 = 0.0545; NDRG1 mRNA, set 1 = 0.138. Knock-down of PPP2R1B came out at: BNIP3L mRNA, set 1 = 0.0569; NDRG1 mRNA, set 1 = 0.122.
